Here are results for three substances from article doi:10.1101/419911.

Amino acid sequences for entries named in this document (tags omitted). A change or cut given only in a name is not applied to a line headed by its entry.
UniProt Q96CW1: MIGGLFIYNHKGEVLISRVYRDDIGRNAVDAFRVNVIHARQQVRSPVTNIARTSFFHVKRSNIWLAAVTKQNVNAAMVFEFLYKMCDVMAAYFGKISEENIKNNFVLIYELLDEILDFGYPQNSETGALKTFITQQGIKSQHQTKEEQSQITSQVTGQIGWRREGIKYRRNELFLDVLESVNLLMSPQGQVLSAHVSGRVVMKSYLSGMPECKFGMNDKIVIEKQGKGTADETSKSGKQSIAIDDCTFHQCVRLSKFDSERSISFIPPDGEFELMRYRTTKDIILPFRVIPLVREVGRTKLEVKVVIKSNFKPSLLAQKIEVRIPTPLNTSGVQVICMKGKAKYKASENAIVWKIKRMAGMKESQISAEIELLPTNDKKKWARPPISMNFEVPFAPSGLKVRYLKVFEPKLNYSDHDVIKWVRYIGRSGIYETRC

No constants are given. Whether binding was seen depends on the method and setting. Binding calls can cover weak binding; strength is not graded here.

The assay addresses T1, IRS1 peptide YMPMpS (phospho-S616), pS-IRS1 (human).
T1 sequence (peptide, phosphoserine at S616 (pS)): CHTDDGYMPMSPGVA
Nature of the assay: pull-down.
For “AP2M1 (residues 160-435) with H416 mutated (from UniProt Q96CW1) (domain or fragment)”, the binding entry is given as “binds”. For “AP2M1 (residues 160-435) with K405 mutated (from UniProt Q96CW1) (domain or fragment)”, the binding entry is on record as “binds”. For “AP2M1 (residues 160-435) with K420 mutated (from UniProt Q96CW1) (domain or fragment)” the value was “binds”.
